For at least one compound, name, drawing or mass did not settle the structure.
Target: T1, 5-HT3 (Mus musculus, UniProt P23979)
T1 construct: NG108-15 Cells; endogenous in cells; host or cells: NG108-15 cells
Test: 5-HT3 binding, NG108-15 cells
Source text: 5-HT3 antagonism can be determined by the radioligand receptor binding assay as described herein and in the in vivo Bezold-Jarisch reflex procedure.

By UniProt entry, the sequences of proteins in these tests, tags left out. Residues count along the entry.
UniProt P23979, 24-489: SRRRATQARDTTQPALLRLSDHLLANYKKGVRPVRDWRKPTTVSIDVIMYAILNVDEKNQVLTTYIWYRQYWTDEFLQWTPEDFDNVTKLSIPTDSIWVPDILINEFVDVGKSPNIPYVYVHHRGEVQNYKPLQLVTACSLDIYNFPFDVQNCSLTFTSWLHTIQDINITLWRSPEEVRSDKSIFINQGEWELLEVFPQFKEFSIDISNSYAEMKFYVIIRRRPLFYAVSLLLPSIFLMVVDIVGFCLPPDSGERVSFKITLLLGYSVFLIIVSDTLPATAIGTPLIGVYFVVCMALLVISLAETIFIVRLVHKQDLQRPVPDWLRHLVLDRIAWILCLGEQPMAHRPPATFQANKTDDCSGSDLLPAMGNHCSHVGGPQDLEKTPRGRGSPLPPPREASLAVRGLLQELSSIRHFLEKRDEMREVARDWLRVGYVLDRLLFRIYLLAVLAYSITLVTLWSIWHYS

## CO[C@@H]1CN(CCCOc2ccc(F)cc2)CC[C@@H]1NC(=O)c1cccn2ccnc12 (relative stereo) [Example 13, Cis-N-[[3-(4-Fluorophenoxy)propyl]-3-methoxy-4piperidinylamine]imidazo[1,2-a]pyridine-8-carboxamide]
  5-HT3 binding: NG108-15 cells, % @ 100 nM: 23%

Reference: patent US5591749A, “Imidazopyridines as serotonergic 5-HT3 -antagonists” (G. D. Searle & Co., priority 1995, dated 1997)
